# Data reported in PubChem BioAssay AID1688 (National Center for Advancing Translational Sciences (NCATS), 2009).
# The campaign covered roughly 220,000 compounds. About 2,400 (1.1%) were called active. This list was built around the results that the source calls inconclusive (neither active nor inactive); the mix of calls is not that of the screen. The call rests on the fitted dose curve; in most records, active means well fitted inhibition curve with a large enough effect; inconclusive means small, poorly fitted or top-dose-only effect, or effect the other way; inactive means no such curve, though single readings can be large or run the other way. Potencies of inconclusive entries are doubtful fits and often do not repeat.
# Test: qHTS Multiplex Assay to Identify Dual Action Probes in a Cell Model of Huntington: Aggregate Formation (GFP); further: nearly all actives have a fitted effect of over 60% in size
# Conditions: PC12 HttQ103-GFP aggregates, Acumen cytometry, 40 h; activity change, negative = inhibition: at 46.1 µM (top of the series)
# Method in brief: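 Aggregates are detected as GFP objects 1–25 µm with signal 6 STDEV over background in lysates of induced PC12 cells. These carry Huntingtin exon 1 with 103 glutamines fused to GFP under an ecdysone promoter; compounds titrated.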
# On the % scale 0 is the no-effect control and ±100 the full control effect; potency means the concentration at half of the fitted maximal effect.
SMILES,Potency,"activity change, negative = inhibition"
Cc1cc2c(C(C)C)c(O)c(O)c(C=O)c2c(O)c1-c1c(C)cc2c(C(C)C)c(O)c(O)c(C=O)c2c1O,"inconclusive: 12.6 µM [inhibitor, partial curve, poor fit]",
C[C@@H](N)[C@@H](O)c1ccc(O)c(O)c1,,inactive: 0%
CCC(C)N1C(=O)/C(=C\c2cc3c4c(c2)CCCN4CCC3)C(=O)NC1=S (configuration not stated),,inactive: -30.9%
CCOc1ccc(-c2c(C)n(-c3ccc(OCC)cc3)c3[n+]2CCCCC3)cc1,"inconclusive: 0.501 µM [inhibitor, full curve, poor fit]",
CCC(=NCCC(c1ccccc1)c1ccccc1)c1c(O)[nH]c(=O)[nH]c1=O,"inconclusive: 1.78 µM [activator, full curve]",
CCCCCCCCCCCC[N+](C)(C)CCOc1ccccc1,"inconclusive: 31.6 µM [inhibitor, partial curve, poor fit]",
CC(C)c1ccc(N2C(=O)NC(=O)/C(=C/C=C/c3ccco3)C2=O)cc1,"inconclusive: 12.6 µM [inhibitor, single point]",
O=C(/C=C/c1ccccc1)C1C(=O)c2ccccc2C1=O,"inconclusive: 10 µM [inhibitor, partial curve, poor fit]",
CC(C)OCCCNC(=O)c1c(N)n(Cc2cccs2)c2nc3ccccc3nc12,active: 28.2 µM,
C/C=C(\C)C(=O)OC1C(C)=C2C(C1OC(=O)CCCCC)C(C)(OC(C)=O)CC(OC(=O)CCC)C1(O)C2OC(=O)C1(C)O (configuration not stated),"inconclusive: 0.501 µM [inhibitor, full curve, poor fit]",
CCN(CC)CCCN=Cc1c(O)n(-c2ccccc2F)c(=O)[nH]c1=O,,inactive: 5.69%
CC(=O)c1ccc2c(c1)C1C(Cl)C(Sc3ccccc3[N+](=O)[O-])CC1C(c1ccccc1[N+](=O)[O-])N2 (configuration not stated),,inactive: -2.02%
S=c1[nH]nc(-c2ccco2)n1Cc1ccccc1,"inconclusive: 8.91 µM [activator, single point]",
COc1ccc(CCn2c(O)c(/C=N/NC(=O)c3ccncc3)c(=O)[nH]c2=O)cc1OC,,inactive: -8.24%
O=[N+]([O-])c1cccc(C2N3CCCN23)c1 (configuration not stated),,inactive: 15.1%
COc1ccc(CCNC(=O)c2c(N)n(CCN3CCOCC3)c3nc4ccccc4nc23)cc1,"inconclusive: 25.1 µM [inhibitor, single point]",
O=C(c1ccccc1F)c1cn(Cc2ccc(F)cc2)c2ccccc12,"inconclusive: 35.5 µM [inhibitor, single point]",
COc1ccc(CCNC(C)CCc2ccc(OC)cc2)cc1 (configuration not stated),"inconclusive: 35.5 µM [inhibitor, single point]",
Cc1cccc(OP(=O)(NCc2ccccc2)Oc2cccc(C)c2)c1,"inconclusive: 35.5 µM [inhibitor, single point]",
C=C(C)CSc1nc2ncc(Cl)cc2[nH]1,"inconclusive: 0.562 µM [inhibitor, full curve, poor fit]",
COc1ccc(OCC(=O)N2CCN(Cc3c[nH]c4ccccc34)CC2)cc1,active: 11.2 µM,
CCCC[N+]12CCC(CC1)C(=C(c1ccccc1)c1ccccc1)C2,"inconclusive: 35.5 µM [inhibitor, single point]",
CNCC[C@H](Oc1cccc2ccccc12)c1cccs1,"inconclusive: 35.5 µM [inhibitor, single point]",

SMILES,Potency,"activity change, negative = inhibition"
CCC(C)NC(=O)c1c(N)n(CC2CCCO2)c2nc3ccccc3nc12 (configuration not stated),,inactive: -8.6%
O=C(c1ccccc1)c1ccc(N=Nc2c(O)[nH]c(=O)[nH]c2=O)cc1,"inconclusive: 10 µM [activator, partial curve]",
OC12CCCCC1C(c1ccccc1)NCC2 (configuration not stated),,inactive: 3.84%
NC(=S)c1cn(C2OC(CO)C(O)C2O)c2ncnc(N)c12 (configuration not stated),active: 2.82 µM,
CC(C)C(=O)Nc1ccc(C(=O)NCc2cccnc2)cc1,"inconclusive: 2 µM [inhibitor, partial curve]",
S=C1CN=C(c2ccccc2)c2cc(Cl)ccc2N1,"inconclusive: 31.6 µM [inhibitor, single point]",
C=CCN1CC[C@@]2(C)c3cc(O)ccc3CC1[C@@H]2C,,inactive: 10.9% [at 9.22 µM]
CCN(CC)S(=O)(=O)c1ccc(C)c(NCC(=O)Nc2ccc(C#N)c(Cl)c2)c1,"inconclusive: 17.8 µM [inhibitor, single point]",
Oc1ccc(Cl)cc1Cc1cc(Cl)ccc1O,"inconclusive: 31.6 µM [inhibitor, single point]",
CC(=NCCc1ccccc1)c1c(O)[nH]c(=O)[nH]c1=O,,inactive: 2.01% [at 9.22 µM]
Cc1c(C(=O)N2CCC(Cc3ccccc3)CC2)sc2ncnc(N3CCC(C)CC3)c12,"inconclusive: 35.5 µM [inhibitor, single point]",
CN(C)C(Cc1ccccc1)C(=O)c1ccccc1 (configuration not stated),"inconclusive: 7.94 µM [inhibitor, partial curve]",
CSC(=Nc1ccccc1)c1c(O)n(C)c(=O)n(C)c1=O,"inconclusive: 35.5 µM [inhibitor, single point]",
Cn1c(=O)cc(OCCCC(=O)N2CCC3(CC2)OCCO3)c2ccccc21,"inconclusive: 12.6 µM [activator, partial curve, poor fit]",
COc1cccc(CN2CCCC(C(=O)c3ccccc3SC)C2)c1O (configuration not stated),,inactive: 7.86% [at 9.22 µM]
CC[N+](C)(CC)CCCCOc1ccc2c(c1)C(=O)c1cc(OCCCC[N+](C)(CC)CC)ccc1-2,,inactive: 3.94% [at 9.22 µM]
CC1CCN(S(=O)(=O)c2ccc(NN=C(C#N)C#N)cc2)CC1,active: 15.8 µM,
COc1ccc(CCn2c(O)c(C=NCCN3CCCCC3)c(=O)[nH]c2=O)cc1OC,,inactive: -9.18%
CCc1cccc(NC(=O)Cn2c(=O)oc3cc(S(=O)(=O)N4CCOCC4)ccc32)c1,active: 2.24 µM,
Cn1cc(NC(=O)CCl)cn1,"inconclusive: 22.4 µM [inhibitor, single point]",
Clc1ccc2c(c1)C(c1ccccc1Cl)=NCc1nnc(N3CCN(CCOc4ccccc4)CC3)n1-2,"inconclusive: 35.5 µM [inhibitor, single point]",
OCCN(Cc1ccccc1)Cc1cccc(F)c1,"inconclusive: 6.31 µM [inhibitor, single point]",
CCOP1(=S)Oc2cc3c(cc2C(C(=O)OC)(C(F)(F)F)O1)OCO3 (configuration not stated),,inactive: -14.7%

# Copied from the list.
# Value of NC(=S)c1cn(C2OC(CO)C(O)C2O)c2ncnc(N)c12 (configuration not stated) under Potency: active: 2.82 µM
# Value of Oc1ccc(Cl)cc1Cc1cc(Cl)ccc1O under Potency: inconclusive: 31.6 µM [inhibitor, single point]

# The list continues:

SMILES,Potency,"activity change, negative = inhibition"
CC([C@H](O)c1ccccc1)N(C)C (some centres not stated),,inactive: -6.98%
COc1cccc(Oc2c(C)oc3cc(OC(=O)N(C)C)ccc3c2=O)c1,"inconclusive: 31.6 µM [inhibitor, single point]",
O=C(OCC1O[C@@H](OC(=O)c2cc(O)c(O)c(O)c2)[C@@H](OC(=O)c2cc(O)c(O)c(O)c2)[C@@H](OC(=O)c2cc(O)c(O)c(O)c2)[C@@H]1OC(=O)c1cc(O)c(O)c(O)c1)c1cc(O)c(O)c(O)c1 (some centres not stated),"inconclusive: 31.6 µM [inhibitor, single point]",
O=C1NC(=O)N(Cc2ccccc2)C(=O)/C1=C\C=C\c1ccco1,"inconclusive: 17.8 µM [activator, single point]",
Cc1ccc(C2NC(=S)NC(c3ccc(C)cc3)C23C(=O)NC(=O)NC3=O)cc1 (configuration not stated),"inconclusive: 1.26 µM [activator, full curve, poor fit]",
COCCCn1c(-c2ccc(OC)cc2)cc(C(=O)NC2CCCCCCC2)c1C,"inconclusive: 25.1 µM [inhibitor, single point]",
COC(=O)c1ccccc1OC(=O)c1ccc(Br)o1,"inconclusive: 8.91 µM [inhibitor, partial curve]",
C/C(CC(c1ccccc1)c1c(O)c2ccccc2oc1=O)=N\NC(N)=S (configuration not stated),"inconclusive: 31.6 µM [activator, single point]",
N#CC1=C(N)Oc2n[nH]c(-c3cccs3)c2C1c1ccccc1C(=O)O (configuration not stated),"inconclusive: 4.47 µM [inhibitor, single point]",
CC(=O)Nc1ccccc1C(=O)OCc1ccc(C(=O)c2ccccc2)cc1,"inconclusive: 35.5 µM [inhibitor, single point]",
N#CC(C#N)=NNc1ccc(-n2ccc(C(F)(F)F)n2)cc1,"inconclusive: 2.82 µM [inhibitor, partial curve]",
O=C(COc1ccccc1)c1cn(Cc2ccccc2)c2ccccc12,"inconclusive: 1 µM [activator, partial curve]",
O=C(NC1(C(F)(F)F)Oc2ccccc2O1)N1CCC2(CC1)OCCO2,"inconclusive: 35.5 µM [inhibitor, single point]",
COc1cc(C(c2c(C)[nH]n(-c3ccccc3)c2=O)c2c(C)[nH]n(-c3ccccc3)c2=O)cc(OC)c1OC,,inactive: 3.5%
COc1ccc(C2CC(c3cccs3)=NN2c2nc(C)c(C(C)=O)s2)cc1OC (configuration not stated),"inconclusive: 10 µM [activator, partial curve]",
C[C@H]1OC[C@@H](C[N+](C)(C)C)O1,"inconclusive: 5.01 µM [activator, full curve]",
Cc1ccc(NC(=O)CCNS(=O)(=O)c2ccc3c(c2)oc(=O)n3C)c(C)c1,"inconclusive: 35.5 µM [inhibitor, single point]",
C[n+]1c(-c2ccccc2)cc(CCCCc2cc(-c3ccccc3)[n+](C)c(-c3ccccc3)c2)cc1-c1ccccc1,active: 22.4 µM,
O=[N+]([O-])c1ccc(N2CCCC2)c2ccncc12,active: 22.4 µM,
CCC(C)N1C(=O)/C(=C\c2ccc(N3CCCCCC3)cc2)C(=O)NC1=S (configuration not stated),,inactive: 3.5%
Cc1nc2c(C(=O)N3CCC4(CC3)OCCO4)cnn2c(C)c1Cc1cccc(Cl)c1,"inconclusive: 3.98 µM [activator, partial curve]",
